Measured values reported in PubChem BioAssay AID588497 (NMMLSC, 2011).
In all, about 360,000 compounds went through this assay and about 780 (0.22%) were called active. The inconclusive results got no clear call from the source; some entries with a clear call stand among them for comparison. Cut-off read from the data, not from the text of the source: active = inhibition above about 35% (passing the limit was not always enough); inconclusive = no clear call, values can overlap the other calls.

The compounds below were run on Botulinum neurotoxin type F light chain protease (Clostridium botulinum) (assay: BoNT/F light chain protease inhibitors, primary screen, biochemical, flow cytometry, MLPCN library (AID 588497; note: plate controls were buffer without enzyme for full effect and enzyme alone for no effect)). Conditions: Multiplex microsphere protease cleavage assay, at 10 µM, active compounds read high.

| Compound | inhibition |
| --- | --- |
| Cc1ccc(CC(=O)NNC(=O)c2cccs2)cc1C | inactive: -2% |
| Cc1c(Cl)cccc1N1C(=O)CC(NNC(=O)c2ccc3c(c2)OCO3)C1=O (stereo unspecified) | inconclusive: -6.7% |
| CCOc1ccc(S(=O)(=O)Nc2ccc(C(=O)NCCCN3CCOCC3)cc2)cc1 | inactive: 1.5% |
| O=S1(=O)c2ccccc2N=NN1Cc1ccc(Cl)cc1 | inconclusive: 22.1% |
| CCCN(Cc1ccco1)S(=O)(=O)c1ccc(OC)c(OC)c1 | inconclusive: 35.7% |
| CCn1c2c(c(=N)c3ccccc31)CCC2 | inconclusive: -44.9% |
| Cc1ccc(Nc2cc(-c3ccccc3)nc3ncnn23)cc1 | inconclusive: 26.4% |
| CCc1cccc(C)c1NC(=O)CCN1C(=O)NC(C)(C)C1=O | inactive: 3.9% |
| COc1ccc(CCNc2nc(=O)[nH]nc2C)cc1OC | inactive: -4.9% |
| O=C(NNC1=Nc2ccccc2SC1)c1ccc(Cl)cc1 | inconclusive: 33.5% |
| C=CCC(=O)N(CC)CC1CCCN(CCc2cccc(F)c2)C1 (stereo unspecified) | inconclusive: 24.9% |
| Cc1nnc(SCC(=O)N2c3ccccc3CC2C)[nH]c1=O (stereo unspecified) | inactive: 6.1% |
| COc1ccc(NC(=O)c2cc(=O)[nH]c3ccccc23)cc1 | inconclusive: -16.7% |
| CC(=O)Nc1ccc(C(=O)OCC(=O)NCc2cccs2)cc1 | inactive: -0.7% |
| Cc1c(C(=O)Oc2ccc(Cl)cc2)n(C)oc1=O | inconclusive: 44.8% |
| CC(=O)N1CCN(c2ccc(N=Cc3c(O)n(Cc4ccccc4)c(=O)[nH]c3=O)cc2)CC1 | inactive: 3.4% |
| O=C(NCc1ccco1)C1Cc2ccccc2CN1C(=O)c1ccco1 (stereo unspecified) | inactive: -4.9% |
| COCCN1C=C(C(=O)OC)C(c2cc(Br)c(OC)c(OC)c2)C(C(=O)OC)=C1 | inactive: -3.4% |
| O=C(NNC(=O)C1C2CCCCC21)c1coc(=O)c(Br)c1 (stereo unspecified) | inconclusive: 1.7% |
| CCOC(=O)C(=O)N/N=C/c1ccco1 | inconclusive: 28.9% |
| O=C1C2C3C=CC(C4CC34)C2C(=O)N1c1cc(Cl)ccn1 (stereo unspecified) | inconclusive: -12% |
| CC(=O)CSc1nnc(C(F)(F)F)n1C | inactive: -3.3% |
| CCc1nc2ccc(C(=O)N(C)Cc3ccco3)cn2c1N(CC)C(=O)NCCc1ccccc1 | inactive: 1.2% |
| Cc1nc(-c2ccc(C(=O)Nc3cccc(F)c3)cc2)cs1 | inconclusive: -20.5% |

| Compound | inhibition |
| --- | --- |
| Cc1ccc(C(=O)/C=C/N(C)C)cn1 | inconclusive: 12.1% |
| CC1=C(C(=O)OCc2ccccc2)C(c2ccc(Cl)cc2)NC(=O)N1C (stereo unspecified) | inconclusive: -2.4% |
| O=C(CCn1c(=S)oc2ccccc21)Nc1ccc(F)cc1 | inactive: -2.4% |
| COc1ccc(C(=O)NN)cc1 | inconclusive: 35.9% |
| Cn1c(-c2ccc(Br)o2)nc2ccccc21 | inactive: 3.9% |
| Cn1nnc2cc(C(=O)NCCC3=CCCCC3)ccc21 | inconclusive: 17% |
| CC(=O)N1CCN(c2ccccc2NC(=O)c2cccc3c(Cl)cccc23)CC1 | inconclusive: -18.5% |
| CC(C)c1ccc(NC(=O)CCCC(=O)NCCc2ccccc2)cc1 | inconclusive: -15.4% |
| Cc1cc(Cl)ccc1NC(=S)NCCc1ccc(Cl)cc1 | inconclusive: 6.9% |
| COc1cccc(/C=N/n2cnc3cc(C)c(C)cc32)c1OC | inconclusive: 38.1% |
| Cc1ccc(C2(C)NC(=O)N(CC(=O)NCc3ccccc3Cl)C2=O)cc1 (stereo unspecified) | inactive: 0.9% |
| CCc1nnc(NC(=O)CSc2nnc3nc(C)cc(C)n23)s1 | inactive: 3.5% |
| CCCn1cc(S(=O)(=O)c2ccc(F)cc2)c(=O)c2cc(OCC)ccc21 | inactive: -1.2% |
| Cc1cc(C(=O)Nc2ccccc2Cl)c2ccccc2n1 | inconclusive: -1.9% |
| COc1ccc(CC(=O)NCc2ccc3c(c2)cc(C)n3C)cc1 | inactive: -53.2% |
| CC1Cc2ccccc2N1C(=O)c1ccc(Br)o1 (stereo unspecified) | inconclusive: -3.9% |
| COC(=O)c1cc(S(=O)(=O)N2CCCC2=O)c(Cl)cc1Cl | inconclusive: 0.8% |
| CC1(C(=O)NS(=O)(=O)c2cccc(C#N)c2)CCN1C(=O)CC1CCCCC1 (stereo unspecified) | inactive: -2% |
| COc1ccc(C(=O)Nc2ccc(Cn3ccnc3)cc2)cc1OC | inconclusive: -28.7% |
| CN1CCN(C(=O)c2ccccc2NC(=O)c2ccc(C(C)(C)C)cc2)CC1 | inconclusive: 5.6% |
| Cc1nc(C(=O)Nc2ccccc2)sc1C(=O)Nc1ccccc1 | inconclusive: -28.8% |
| O=C(O)C1C2CCCCC2=C2CCCCC2C1C(=O)Nc1nccs1 (stereo unspecified) | inactive: -7.7% |
| COc1ccc(OC)cc1 | inactive: -7.5% |
| Cc1ccnc(Nc2nc(-c3sc(C)nc3C)cs2)c1 | inconclusive: -22.3% |

| Compound | inhibition |
| --- | --- |
| CN(C)c1ccc(/C=C/C(=O)c2cccnc2)cc1 | inconclusive: -74% |
| CSc1ccccc1NC(=O)c1ccoc1C | inconclusive: 9.8% |
| Cn1cc(Br)c(-c2cccc(N3C(=O)CC(C)(C)CC3=O)c2)n1 | inconclusive: 30.5% |
| OCC(CO)(CO)NC(=S)Nc1cc(Cl)cc(Cl)c1 | inconclusive: -32.9% |
| O=C(NCCc1ccc(Cl)cc1)C1CCCN1C(=O)Nc1ccc(F)cc1 (stereo unspecified) | inconclusive: 2.2% |
| c1ccc2[nH]c(CN3CCN(c4ncnc5c4oc4ccccc45)CC3)nc2c1 | inconclusive: -22.4% |
| NC(=O)CSc1nnc(NC(=O)c2cccc(S(=O)(=O)N3CCCCC3)c2)s1 | inactive: -2.3% |
| CC(=O)Nc1ccc(N2C(C(C)=O)=NN(c3ccccc3)C2c2cccs2)cc1 (stereo unspecified) | inactive: -0.4% |
| O=C(CCC(=O)OCC(=O)c1ccc(Cl)cc1)NC1CCCCC1 | inconclusive: -13.4% |
| CCN1CCN(Cc2c3ccccc3cc3ccccc23)CC1 | inconclusive: -3.6% |
| Cn1c(=O)c2c(ncn2CC(=O)OCCCC(=O)c2ccc(Br)cc2)n(C)c1=O | inactive: -8% |
| O=C(O)CC(Cc1ccc(Cl)cc1)C(=O)Nc1cc(Cl)ccc1Cl (stereo unspecified) | inconclusive: 16.9% |
| CCN(CC)c1ccc(C2CC(=O)Nc3cc(OC)c(OC)cc32)cc1 (stereo unspecified) | inconclusive: 0.2% |
| O=c1c2ccccc2nc(-c2ccco2)n1-c1ccc(Br)cc1 | inconclusive: -36% |
| FC(F)(F)c1ccc(-c2n[nH]c(=S)o2)nc1 | inconclusive: -143% |
| O=C(NC(=S)Nc1ccccc1)c1cncc(C#Cc2ccccc2)c1 | inconclusive: -18.8% |
| O=C(N/N=C/c1cccc([N+](=O)[O-])c1O)C(O)(c1ccccc1)c1ccccc1 | inconclusive: -0.3% |
| Cc1cc(C)cc(NC(=O)N(CCC#N)Cc2cccs2)c1 | inconclusive: 46.1% |
| Cc1ccc(NC(=S)NC(C)(C)C)c([N+](=O)[O-])c1 | inconclusive: 64.1% |
| COc1cccc(NC(=O)c2nn(C)c(C(=O)Nc3cccc(OC)c3)c2[N+](=O)[O-])c1 | inconclusive: -32.3% |
| O=C(NCCCO)c1cc2c([nH]c3ccccc32)c(-c2ccc(F)cc2)n1 | inconclusive: 6.4% |
| CCC1=NN(C(=O)Cc2ccc([N+](=O)[O-])cc2)C(O)(C(F)(F)F)C1 (stereo unspecified) | inconclusive: 13.5% |
| CCOc1ccccc1Nc1cc2n(c(=O)n1)CCc1cc(OC)c(OC)cc1-2 | inconclusive: -0.5% |
| Clc1ccccc1CNCc1ccc2c(c1)OCO2 | inactive: 0.5% |

Ordered by molecular weight (high to low): five of the compounds above.

| Compound | inhibition |
| --- | --- |
| Cn1c(=O)c2c(ncn2CC(=O)OCCCC(=O)c2ccc(Br)cc2)n(C)c1=O | inactive: -8% |
| O=C(NCCCO)c1cc2c([nH]c3ccccc32)c(-c2ccc(F)cc2)n1 | inconclusive: 6.4% |
| OCC(CO)(CO)NC(=S)Nc1cc(Cl)cc(Cl)c1 | inconclusive: -32.9% |
| Cc1cc(C)cc(NC(=O)N(CCC#N)Cc2cccs2)c1 | inconclusive: 46.1% |
| Cc1ccc(NC(=S)NC(C)(C)C)c([N+](=O)[O-])c1 | inconclusive: 64.1% |

Next part:

| Compound | inhibition |
| --- | --- |
| Cc1cc(C)cc(OC(=O)COc2ccccc2C)c1 | inconclusive: -18.8% |
| Cc1ccc(N(CC(=O)N2CCCC2)S(C)(=O)=O)cc1C | inconclusive: 9.4% |
| CCOC(=O)c1c(NC(C)=O)sc2c1CCC(C=O)=C2Sc1ccccc1 | active: 39.6% |
| FC(F)(F)c1nc(NCc2cccnc2)c2ccccc2n1 | inconclusive: 12.7% |
| CCCCOc1ccc(C(=O)CCN2CCOCC2)cc1 | inactive: 5.8% |
| CCOC(=O)c1c(CN(CC)CC)n(-c2ccccc2)c2ccc(O)cc12 | inconclusive: 1% |
| CCCc1ccc(C(O)c2ncc(-c3ccccc3C)[nH]2)cc1 (stereo unspecified) | inactive: -11.7% |
| COc1ccc(Nc2nnc(SCC(=O)N3CCCC3)s2)cc1 | inconclusive: -14.3% |
| CCOC(=O)C1(Cc2ccccc2C)CCCN(C(=O)CSC)C1 (stereo unspecified) | inconclusive: 29.7% |
| Cc1cc(Cl)c(OCCn2ccnc2)c(Br)c1 | inconclusive: -17.1% |
| O=C(NCc1ccco1)c1ccccc1O | inconclusive: 28% |
| CCN(CC)CCCN(C(=O)c1cccc(C)c1)c1nc(-c2ccc(OC)cc2)cs1 | inconclusive: 5.5% |
| O=C(COC(=O)c1cccs1)NC1CCCCC1 | inconclusive: 16.9% |
| O=C(NCc1ccccc1Cl)c1cnccc1C(F)(F)F | inconclusive: 101% |
| O=C(Nc1cc(-c2nc3ncccc3o2)ccc1Cl)c1ccc([N+](=O)[O-])o1 | inactive: -17.5% |
| CCOC(=O)c1cc(S(=O)(=O)N(C)Cc2ccccc2)cn1C | inactive: -0.8% |
| COc1ccc(NC(=O)c2cc(C3CCCCN3C(=O)CCc3ccccc3)on2)c(C)c1 (stereo unspecified) | inactive: 4.9% |
| c1ccc(CN2CCOCCOCCOCCOCC2)cc1 | inconclusive: 21.5% |
| O=C(NCC1CCCO1)c1cc2n(n1)C(C(F)(F)F)CC(c1ccc(Br)cc1)N2 (stereo unspecified) | inactive: 0.7% |
| Cc1ccc(-c2cc(-c3ccccc3)[nH]c(=S)c2C#N)cc1 | inactive: -7.2% |
| O=C1NC2(CCCCCC2)C(=O)N1Cc1ccc(Br)cc1 | inactive: 2.8% |
| COc1ccc(C(=O)NC2=Nc3ccccc3N=C(C)C2c2ccccc2)cc1 (stereo unspecified) | inconclusive: 35.1% |
| N#Cc1ccc(NC(=O)Nc2cccc(C#N)c2)cc1 | inconclusive: 2.3% |
| Cc1[nH]c2ccc(C(C)C)cc2c1CC(=O)O | inconclusive: -64.2% |
